PubChem BioAssay AID686938 – Drosophila RNAi Screening Center | 2013
The deposit covers about 23,000 reagents; this is an unselected part of those with a known target gene and a result. In the full data, 75 (0.33%) are marked active. 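Raw plate signals without normalisation; calls rest on plate z-scores that were not deposited; ratio present for only 364 wells.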 Unmarked entries are inactive. A plus sign joins genes that one reagent is predicted to hit. Not given: the dose of the treatment.

Screen: 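Fly genes required for calcium entry once internal stores are emptied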 (primary screen)
System: Drosophila S2R+ cells
Knock-down reagent: long dsRNA against Drosophila genes, about 0.25 µg dsRNA per well, roughly 10,000 cells
Time to read-out: 5 days of knock-down before the calcium assay
Challenge: thapsigargin (SERCA pump blocker) to empty calcium stores; entry signal taken 4 min after adding it
Measurement: 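Duplicate raw fluo-4 intensities per well from a plate reader, at rest and four minutes after thapsigargin emptied calcium stores; entry-to-rest ratio filled for only some wells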
Direction: calcium entry signal: higher = stronger calcium signal after store depletion; resting calcium signal: higher = higher resting calcium signal
Call rule: 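Hit if the duplicate-averaged plate z-score for entry over resting signal is under −3; wells with weak total dye signal (Fmax z < −2) or more than 5 off-targets removed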
Calls: active = strongly reduced calcium entry; inactive = no strong reduction

no.	target gene	DRSC id	calcium entry signal, replicate 1 (fluorescence units)	calcium entry signal, replicate 2 (fluorescence units)	resting calcium signal, replicate 1 (fluorescence units)	resting calcium signal, replicate 2 (fluorescence units)
1	CG8726	DRSC07250	3.37e7	3.43e7	1.45e7	1.67e7
2	hydra	DRSC20497	5.52e7	5.81e7	2.80e7	2.56e7
3	Adgf-A	DRSC10566	4.19e7	4.53e7	1.96e7	3.12e7
4	CG11816	DRSC19428	3.55e7	3.45e7	1.79e7	1.81e7
5	Cyp308a1	DRSC20238	4.54e7	3.81e7	2.12e7	1.67e7
6	RecQ5	DRSC11266	3.14e7	4.72e7	1.56e7	2.93e7
7	CG32147	DRSC09346	4.89e7	3.96e7	2.37e7	1.95e7
8	GlcAT-P	DRSC10603	4.75e7	3.43e7	2.95e7	1.39e7
9	GlcAT-P	DRSC10604	3.46e7	4.83e7	1.63e7	2.05e7
10	14-3-3epsilon	DRSC16370	3.30e7	3.29e7	4.90e7	1.60e7
11	CG8736	DRSC07255	4.38e7	3.60e7	2.03e7	1.55e7
12	CG33169	DRSC11853	2.31e7	3.27e7	1.17e7	1.32e7
13	CG4744	DRSC06887	2.20e7	2.73e7	9.82e6	1.23e7
14	Obp57a	DRSC22047	3.31e7	5.23e7	1.64e7	2.49e7
15	Spn55B	DRSC07694	3.54e7	4.46e7	1.62e7	2.43e7
16	Spn55B	DRSC21862	2.09e7	3.75e7	1.07e7	1.90e7
17	CG9003	DRSC07317	3.28e7	3.58e7	1.89e7	1.86e7
18	CG31556 (retired record)	DRSC12122	3.65e7	4.69e7	1.88e7	2.45e7
19	CG31556 (retired record)	DRSC22177	2.61e7	4.57e7	1.31e7	2.27e7
20	Ptp69D	DRSC11258	2.37e7	4.04e7	1.20e7	1.69e7
21	fs(1)h	DRSC18778	2.84e7	4.35e7	1.29e7	1.90e7
22	mod(mdg4) + pre-mod(mdg4)-Z + pre-mod(mdg4)-T	DRSC13477	3.56e7	2.92e7	1.96e7	1.56e7
23	mod(mdg4) + pre-mod(mdg4)-Z + pre-mod(mdg4)-T	DRSC17001	2.34e7	2.89e7	3.19e7	1.25e7
24	CheB53a	DRSC06625	4.46e7	5.15e7	2.01e7	2.54e7
